PubChem BioAssay AID720505 | Drosophila RNAi Screening Center, 2013
The screen tested about 20,000 reagents; shown is an unselected part of those with a known target gene and a result. Of all reagents, about 2,100 (10%) were called active. 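Raw plate signals without normalisation; calls rest on control-based scores that were not deposited; replicate 2 separates called from uncalled poorly.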 A plus sign joins genes that one reagent is predicted to hit. The record does not give: the amount of reagent, the time to read-out.

Screen: 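Knock-downs that reduce calcium influx once internal stores are emptied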 (primary screen)
System: Drosophila S2R+ cells
Knock-down reagent: long dsRNA against Drosophila genes
Conditions: thapsigargin (2 µM) in calcium-free buffer to empty internal stores, then 2 mM calcium added back
Read-out: 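Fluo-4 signal in 384-well plates read on a FLIPR after thapsigargin (2 µM, calcium-free) store depletion and 2 mM calcium add-back; unnormalised mean endpoint per well; screen run twice, selected wells retested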
Direction: calcium signal and retest calcium signal: higher = more calcium entry after store depletion
Rule for the call: 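About 1500 genes called as lowering calcium entry, by varying amounts, judged against per-plate control wells with STIM1 as positive and Rho1 as negative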
Calls: active = called as lowering calcium entry; inactive = not called

no.	target	PubChem SID	calcium signal, replicate 1	calcium signal, replicate 2	retest calcium signal, replicate 1	retest calcium signal, replicate 2	outcome
1	Tango5	SID104197815	146	152			inactive
2	His3:CG33818 + His3:CG33857 + His3:CG33806 + 20 more	SID104201059	40.9	45			active
3	CG4860	SID104195456	134	106	119	85.5	inactive
4	CG4860	SID104201424	179	108			inactive
5	Uba1	SID104187359	153	153			inactive
6	Trim9	SID104182034	197	156			inactive
7	CG11658	SID104189644	63.4	78			inactive
8	CG7387	SID104190625	109	88.3			inactive
9	wkd	SID104195569	182	113			inactive
10	Ubr1	SID104199940	129	140			inactive
11	CG6865	SID104190524	101	113			inactive
12	CG15450	SID104200314	159	89.9	7123	138	inactive
13	CG12301	SID104189667	107	71.4			inactive
14	CG17571	SID104181560	83.7	4968			inactive
15	CG17571	SID104183547	206	122			inactive
16	crol	SID104183306	113	91.3			inactive
17	crol	SID104201124	151	105			inactive
18	trol	SID104197510					inactive
19	trol	SID104198405	66.4	132			active
20	trol	SID104198606	70.8	134			inactive
21	CG9095	SID104199942	99	144			inactive
22	Iyd	SID104190406	109	116			inactive
23	Iyd	SID104190407	92.4	105			inactive
24	CG6481	SID104199787	74	132			inactive
25	CG18179	SID104190095	84.1	145			inactive
26	CNMa	SID104188197	72.6	128			inactive
27	MstProx	SID104192393	118	115			inactive
28	CG13097	SID104181991	93	94.4			inactive
29	pip	SID104191174	85	136			inactive
30	CG14818	SID104198340	116	145			inactive
31	Shawl	SID104182001	168	175			inactive
32	Shawl	SID104182540	159	120			inactive
33	CG4294	SID104184252	107	110			inactive
34	CG33757	SID104184951	138	94.7			inactive
35	sba	SID104196842	131	142	6390	161	inactive
36	Hsf	SID104187235	141	84.5			inactive
37	Zcchc7	SID104190891	106	104			inactive
38	CG43339	SID104182258	113	116			inactive
39	bwa	SID104181541	143	7107			inactive
40	bwa	SID104182102	104	94.3			inactive
41	dgo	SID104185926	156	114			inactive
42	CG32679	SID104197436					inactive
43	pigs	SID104198126	202	130			inactive
44	pigs	SID104198127	170	84.5			inactive
45	Gcna	SID104198345	87	95.5			inactive
46	CG33768	SID104191507	106	138			inactive
47	mle	SID104184713	98.9	148			inactive

Entries above whose gene name begins with M or m (2):
target	PubChem SID	calcium signal, replicate 1	calcium signal, replicate 2	retest calcium signal, replicate 1	retest calcium signal, replicate 2	outcome
MstProx	SID104192393	118	115			inactive
mle	SID104184713	98.9	148			inactive

Further reagents:
no.	target	PubChem SID	calcium signal, replicate 1	calcium signal, replicate 2	retest calcium signal, replicate 1	retest calcium signal, replicate 2	outcome
48	Menl-2 + Menl-1	SID104187261	153	159			inactive
49	Menl-2 + Menl-1	SID104187262	163	185			inactive
50	CG6527	SID104190451	84	121			inactive
51	Orc5	SID104183182	122	106			inactive
52	Ir40a	SID104183524	129	97.4			inactive
53	Ir40a	SID104183525	92.5	129			inactive
54	CG13700	SID104189841	90.7	174			inactive
55	CG8509	SID104199901	181	119			inactive
56	CG18788	SID104182489	106	172			inactive
57	dob	SID104199740	153	108			inactive
58	meng	SID104181926	154	89.8			inactive
59	COX3 (retired record)	SID104201071	216	89.7			inactive
60	futsch	SID104197480					inactive
61	futsch	SID104197741	91.4	115	6760	138	inactive
62	futsch	SID104197744	68.9	94.6			active
63	futsch	SID104198335	94.4	104			inactive
64	Hsp68	SID104196504	204	188			inactive
65	CG10339	SID104183857	87.7	171			inactive
66	eIF3j	SID104185899	215	161			inactive
67	CG1239	SID104191996	114	137			inactive
68	kairos	SID104199764	167	118			inactive
69	kairos	SID104202643	129	144			inactive
70	CG13359	SID104198331	96.9	130			inactive
71	Alp12	SID104182307	173	111			inactive
72	CG34281	SID104194599	101	145			inactive
73	Elovl7	SID104195244	88.2	142			inactive
74	Elovl7	SID104201281	124	83.5			inactive
75	CG11586	SID104187995	111	131	92	95.5	inactive
76	CG13692	SID104180153	93.3	108			inactive
77	CG7542	SID104190660	112	280			inactive
78	C901	SID104199143	148	114			inactive
79	Gr61a	SID104188150	107	110			inactive
80	Glt	SID104183125	85.7	70.6			inactive
81	CG5107	SID104195508	113	98			inactive
82	frac	SID104190659	103	118			inactive
83	Cda5	SID104179795	75.2	105	7271	159	active
84	Cda5	SID104180321	198	161			inactive
85	Cda5	SID104180324	174	144			inactive
86	Cda5	SID104201111	101	90.1			inactive
